Consider 35 targets from the supplement of paper PMC10849652.

The chains behind the UniProt entries cited, without tags or fusion partners. Where a name states a change or a piece, a line headed by the entry shows the natural chain unless it says otherwise.
UniProt Q13901: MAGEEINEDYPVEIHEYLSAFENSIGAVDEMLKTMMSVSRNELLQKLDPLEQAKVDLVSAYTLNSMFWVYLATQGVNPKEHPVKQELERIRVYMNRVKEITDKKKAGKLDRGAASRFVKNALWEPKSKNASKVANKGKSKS
UniProt O60566, whole entry, looked up: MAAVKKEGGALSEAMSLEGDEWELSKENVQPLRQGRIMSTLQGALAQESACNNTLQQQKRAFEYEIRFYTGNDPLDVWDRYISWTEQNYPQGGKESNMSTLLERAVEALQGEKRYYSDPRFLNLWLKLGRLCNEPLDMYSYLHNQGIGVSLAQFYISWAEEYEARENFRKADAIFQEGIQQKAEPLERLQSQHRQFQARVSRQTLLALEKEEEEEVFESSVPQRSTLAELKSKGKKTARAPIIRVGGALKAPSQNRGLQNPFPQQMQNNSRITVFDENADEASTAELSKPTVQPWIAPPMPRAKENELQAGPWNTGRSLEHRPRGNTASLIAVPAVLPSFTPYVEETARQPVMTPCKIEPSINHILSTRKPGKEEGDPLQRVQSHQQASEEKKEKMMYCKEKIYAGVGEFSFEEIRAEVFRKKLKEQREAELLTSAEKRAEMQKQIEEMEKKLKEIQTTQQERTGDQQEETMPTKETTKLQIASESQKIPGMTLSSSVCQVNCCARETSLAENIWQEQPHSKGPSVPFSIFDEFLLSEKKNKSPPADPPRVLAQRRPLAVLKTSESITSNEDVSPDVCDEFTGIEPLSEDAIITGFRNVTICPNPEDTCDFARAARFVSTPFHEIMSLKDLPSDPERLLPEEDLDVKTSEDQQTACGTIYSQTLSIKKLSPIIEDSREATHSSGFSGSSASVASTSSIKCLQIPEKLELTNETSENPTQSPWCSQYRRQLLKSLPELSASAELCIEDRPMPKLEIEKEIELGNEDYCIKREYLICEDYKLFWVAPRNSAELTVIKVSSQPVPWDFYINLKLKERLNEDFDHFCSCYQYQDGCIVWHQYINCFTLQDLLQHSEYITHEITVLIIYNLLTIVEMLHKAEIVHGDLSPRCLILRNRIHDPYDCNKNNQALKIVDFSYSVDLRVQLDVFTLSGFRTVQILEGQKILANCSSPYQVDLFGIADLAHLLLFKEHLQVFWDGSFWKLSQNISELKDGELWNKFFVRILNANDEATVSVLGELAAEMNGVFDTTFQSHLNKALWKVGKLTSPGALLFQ
UniProt Q96RR4, whole entry, looked up: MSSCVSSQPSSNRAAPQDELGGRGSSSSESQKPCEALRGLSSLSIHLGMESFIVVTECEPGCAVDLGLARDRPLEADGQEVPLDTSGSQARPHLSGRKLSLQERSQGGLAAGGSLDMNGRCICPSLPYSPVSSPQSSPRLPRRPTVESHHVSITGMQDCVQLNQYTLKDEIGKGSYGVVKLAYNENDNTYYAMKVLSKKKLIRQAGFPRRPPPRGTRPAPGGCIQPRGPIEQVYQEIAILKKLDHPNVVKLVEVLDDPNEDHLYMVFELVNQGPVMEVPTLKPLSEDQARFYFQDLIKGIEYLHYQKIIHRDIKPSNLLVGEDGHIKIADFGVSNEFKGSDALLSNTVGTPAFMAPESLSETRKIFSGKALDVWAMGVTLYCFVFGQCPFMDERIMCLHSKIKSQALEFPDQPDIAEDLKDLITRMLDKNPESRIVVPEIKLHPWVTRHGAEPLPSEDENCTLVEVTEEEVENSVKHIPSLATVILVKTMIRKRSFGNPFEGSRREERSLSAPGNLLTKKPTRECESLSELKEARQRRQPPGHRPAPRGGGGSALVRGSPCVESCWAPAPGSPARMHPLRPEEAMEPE
UniProt Q8WUR7: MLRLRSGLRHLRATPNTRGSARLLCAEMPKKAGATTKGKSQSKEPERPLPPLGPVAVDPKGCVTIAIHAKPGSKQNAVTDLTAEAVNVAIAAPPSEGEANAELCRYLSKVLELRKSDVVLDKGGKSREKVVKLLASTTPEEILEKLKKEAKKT
UniProt Q07021: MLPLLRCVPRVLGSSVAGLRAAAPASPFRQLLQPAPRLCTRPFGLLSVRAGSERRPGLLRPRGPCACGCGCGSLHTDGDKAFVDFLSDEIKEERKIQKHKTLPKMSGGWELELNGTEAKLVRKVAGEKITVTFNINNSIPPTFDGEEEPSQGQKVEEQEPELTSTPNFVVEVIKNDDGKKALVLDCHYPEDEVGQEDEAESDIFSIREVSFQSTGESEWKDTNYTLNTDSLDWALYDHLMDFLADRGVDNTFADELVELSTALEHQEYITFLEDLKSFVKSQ
UniProt Q9UFG5: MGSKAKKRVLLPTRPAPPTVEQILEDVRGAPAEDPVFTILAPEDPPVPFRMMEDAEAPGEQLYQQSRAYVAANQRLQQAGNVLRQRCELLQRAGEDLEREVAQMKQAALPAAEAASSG
UniProt Q9Y6E2: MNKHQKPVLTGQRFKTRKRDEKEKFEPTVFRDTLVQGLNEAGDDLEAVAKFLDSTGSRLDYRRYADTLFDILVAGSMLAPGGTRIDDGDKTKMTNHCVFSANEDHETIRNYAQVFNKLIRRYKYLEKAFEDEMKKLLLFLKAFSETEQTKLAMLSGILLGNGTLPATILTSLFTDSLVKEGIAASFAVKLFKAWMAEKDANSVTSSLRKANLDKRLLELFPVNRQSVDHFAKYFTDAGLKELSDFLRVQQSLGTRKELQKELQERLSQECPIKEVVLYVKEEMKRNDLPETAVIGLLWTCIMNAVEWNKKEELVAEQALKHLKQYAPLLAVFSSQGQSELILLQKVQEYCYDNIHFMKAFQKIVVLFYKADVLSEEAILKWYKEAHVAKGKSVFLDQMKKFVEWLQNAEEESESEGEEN
UniProt Q96GQ5: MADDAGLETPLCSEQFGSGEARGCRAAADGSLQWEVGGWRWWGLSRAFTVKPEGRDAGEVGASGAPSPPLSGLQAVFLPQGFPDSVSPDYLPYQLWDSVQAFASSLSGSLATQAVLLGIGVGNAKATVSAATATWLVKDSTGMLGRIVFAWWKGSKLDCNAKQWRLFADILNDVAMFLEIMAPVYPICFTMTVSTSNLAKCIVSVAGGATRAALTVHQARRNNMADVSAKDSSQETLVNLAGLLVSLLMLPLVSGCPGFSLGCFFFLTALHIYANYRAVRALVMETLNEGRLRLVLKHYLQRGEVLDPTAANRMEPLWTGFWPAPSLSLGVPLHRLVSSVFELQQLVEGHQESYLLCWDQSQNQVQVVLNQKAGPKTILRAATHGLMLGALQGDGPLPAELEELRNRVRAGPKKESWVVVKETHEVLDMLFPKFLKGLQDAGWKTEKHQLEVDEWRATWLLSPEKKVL
UniProt Q5T5Y3: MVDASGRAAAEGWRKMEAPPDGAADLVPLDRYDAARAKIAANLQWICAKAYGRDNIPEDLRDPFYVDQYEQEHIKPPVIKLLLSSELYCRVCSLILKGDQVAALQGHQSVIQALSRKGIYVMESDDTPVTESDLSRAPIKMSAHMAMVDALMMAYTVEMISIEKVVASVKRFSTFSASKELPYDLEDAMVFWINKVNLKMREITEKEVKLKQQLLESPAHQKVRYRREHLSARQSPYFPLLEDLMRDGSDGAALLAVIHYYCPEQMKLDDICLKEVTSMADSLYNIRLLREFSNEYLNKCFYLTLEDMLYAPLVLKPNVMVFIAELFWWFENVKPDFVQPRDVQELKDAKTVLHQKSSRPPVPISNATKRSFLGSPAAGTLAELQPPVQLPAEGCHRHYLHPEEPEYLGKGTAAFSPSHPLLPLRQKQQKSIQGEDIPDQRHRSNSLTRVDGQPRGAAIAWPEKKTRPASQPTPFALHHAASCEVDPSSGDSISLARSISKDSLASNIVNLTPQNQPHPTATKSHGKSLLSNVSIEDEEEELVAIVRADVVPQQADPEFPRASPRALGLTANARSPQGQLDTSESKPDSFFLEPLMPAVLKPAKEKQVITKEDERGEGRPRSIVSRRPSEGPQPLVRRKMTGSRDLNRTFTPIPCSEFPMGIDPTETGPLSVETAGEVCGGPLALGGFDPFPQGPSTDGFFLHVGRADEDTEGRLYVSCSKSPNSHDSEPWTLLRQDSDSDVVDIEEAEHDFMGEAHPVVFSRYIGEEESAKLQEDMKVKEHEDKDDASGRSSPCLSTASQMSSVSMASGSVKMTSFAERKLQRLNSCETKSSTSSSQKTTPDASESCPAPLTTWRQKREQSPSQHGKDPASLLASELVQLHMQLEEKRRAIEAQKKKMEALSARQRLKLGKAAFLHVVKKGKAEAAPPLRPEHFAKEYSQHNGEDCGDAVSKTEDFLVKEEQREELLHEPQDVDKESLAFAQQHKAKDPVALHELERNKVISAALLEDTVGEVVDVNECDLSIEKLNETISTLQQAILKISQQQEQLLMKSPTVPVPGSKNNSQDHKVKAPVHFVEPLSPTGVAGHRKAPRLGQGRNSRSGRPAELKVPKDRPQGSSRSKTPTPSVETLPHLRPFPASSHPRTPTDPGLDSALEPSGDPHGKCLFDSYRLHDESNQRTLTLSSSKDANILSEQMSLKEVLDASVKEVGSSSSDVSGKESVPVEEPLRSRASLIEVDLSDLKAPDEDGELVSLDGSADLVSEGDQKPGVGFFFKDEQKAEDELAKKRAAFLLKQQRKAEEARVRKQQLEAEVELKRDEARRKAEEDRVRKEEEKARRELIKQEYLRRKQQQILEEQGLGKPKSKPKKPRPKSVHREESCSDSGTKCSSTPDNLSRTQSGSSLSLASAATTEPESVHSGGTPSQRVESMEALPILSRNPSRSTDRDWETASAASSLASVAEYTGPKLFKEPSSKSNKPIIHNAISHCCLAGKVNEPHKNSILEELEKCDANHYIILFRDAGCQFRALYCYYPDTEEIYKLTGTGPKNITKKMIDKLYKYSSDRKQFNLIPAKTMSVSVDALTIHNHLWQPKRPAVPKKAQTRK
UniProt Q6P1S2: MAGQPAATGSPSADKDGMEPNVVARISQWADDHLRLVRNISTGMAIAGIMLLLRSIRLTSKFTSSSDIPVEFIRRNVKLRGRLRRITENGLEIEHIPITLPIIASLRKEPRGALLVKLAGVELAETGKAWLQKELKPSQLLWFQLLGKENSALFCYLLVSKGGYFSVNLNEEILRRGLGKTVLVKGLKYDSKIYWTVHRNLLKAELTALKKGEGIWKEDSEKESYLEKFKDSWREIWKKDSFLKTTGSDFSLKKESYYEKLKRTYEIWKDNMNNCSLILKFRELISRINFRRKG
UniProt Q9H3J6: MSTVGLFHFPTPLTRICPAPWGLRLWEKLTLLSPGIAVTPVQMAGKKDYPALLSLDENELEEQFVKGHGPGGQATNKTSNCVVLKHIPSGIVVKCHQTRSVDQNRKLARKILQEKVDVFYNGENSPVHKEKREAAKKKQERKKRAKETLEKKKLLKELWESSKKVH
UniProt Q13554, whole entry, looked up: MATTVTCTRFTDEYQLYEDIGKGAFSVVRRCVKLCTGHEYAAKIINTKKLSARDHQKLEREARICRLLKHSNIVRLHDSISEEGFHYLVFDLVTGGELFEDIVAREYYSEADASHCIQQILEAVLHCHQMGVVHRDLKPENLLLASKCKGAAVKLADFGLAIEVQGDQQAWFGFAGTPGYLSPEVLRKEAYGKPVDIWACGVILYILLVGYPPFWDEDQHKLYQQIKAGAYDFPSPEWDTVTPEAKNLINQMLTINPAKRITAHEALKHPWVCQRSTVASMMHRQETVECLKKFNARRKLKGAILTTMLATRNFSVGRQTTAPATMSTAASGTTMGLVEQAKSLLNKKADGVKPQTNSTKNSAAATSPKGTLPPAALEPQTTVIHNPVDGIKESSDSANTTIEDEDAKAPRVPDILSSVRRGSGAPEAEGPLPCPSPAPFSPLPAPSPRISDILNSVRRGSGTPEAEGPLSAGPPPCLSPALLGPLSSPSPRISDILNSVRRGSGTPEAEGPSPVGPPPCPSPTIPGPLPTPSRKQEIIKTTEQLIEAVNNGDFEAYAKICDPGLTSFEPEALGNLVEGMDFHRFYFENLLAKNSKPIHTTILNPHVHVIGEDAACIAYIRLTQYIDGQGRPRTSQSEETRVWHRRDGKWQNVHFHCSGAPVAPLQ
UniProt O00478: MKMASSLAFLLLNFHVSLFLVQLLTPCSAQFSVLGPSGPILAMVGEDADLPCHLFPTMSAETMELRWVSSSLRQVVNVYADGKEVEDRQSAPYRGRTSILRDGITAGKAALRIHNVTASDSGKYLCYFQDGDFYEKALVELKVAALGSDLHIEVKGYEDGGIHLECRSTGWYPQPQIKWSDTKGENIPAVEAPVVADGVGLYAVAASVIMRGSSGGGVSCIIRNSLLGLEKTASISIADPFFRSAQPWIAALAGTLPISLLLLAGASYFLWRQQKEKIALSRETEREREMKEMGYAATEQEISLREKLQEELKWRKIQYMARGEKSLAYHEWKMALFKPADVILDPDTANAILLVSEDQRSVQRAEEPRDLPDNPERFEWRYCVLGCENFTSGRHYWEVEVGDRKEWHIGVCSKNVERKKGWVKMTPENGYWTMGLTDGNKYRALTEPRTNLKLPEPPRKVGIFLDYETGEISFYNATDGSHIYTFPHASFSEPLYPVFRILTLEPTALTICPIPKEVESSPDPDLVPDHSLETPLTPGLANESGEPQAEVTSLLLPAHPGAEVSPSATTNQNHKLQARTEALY

The list shows a part of the results.

Compound in this experiment: O=C(O)c1ccc2c(c1)nc(Nc1cccc(Cl)c1)c1ccncc12 [silmitasertib]
The experiment in a line: log2 fold change, soluble protein after heating vs DMSO (PISA); higher = thermal stabilisation; K562 lysate, 10 uM; active = over 0.2 and 3.5 SD of the protein, either way, in both replicates (recomputed). A digest of the protocol: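 Soluble protein was defined as the supernatant remaining after 21,000xg for 90 min, following pooling of heated aliquots and adjustment to 0.5% NP-40 at 4°C. Before that, crude K562 extract at 1 mg/mL protein in PBS pH 7.4 with 1 mM MgCl2 was treated with 10 μM compound for 30 min and heated for 3 min across 48°C-58°C. Quantification used TMTpro 16plex LC-MS/MS with channel sums equalised, and values are log-two fold changes in thermal stability relative to solvent controls from duplicates.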
In the case of C1D (UniProt Q13901), the log2 fold change was inactive: -0.009. On to BUB1B isoform 3 (UniProt O60566), for which the log2 fold change is inactive: 0.015. For C12orf57 (UniProt Q99622), the log2 fold change was inactive: 0.059. CAB39 (UniProt Q9Y376): the log2 fold change is inactive: -0.006.

In the case of CAMKK2 (UniProt Q96RR4), the log2 fold change is inactive: 0.074. On to CAB39L (UniProt Q9H9S4), for which the log2 fold change is inactive: -0.06. For C15orf40 (UniProt Q8WUR7), the log2 fold change is inactive: -0.046. C19orf53 (UniProt Q9UNZ5): the log2 fold change was inactive: 0.098.

Take C4BPA (UniProt P04003): the log2 fold change is inactive: -0.044. Take CAMK1 (UniProt Q14012): the log2 fold change is inactive: -0.059. Consider CALCOCO1 (UniProt Q9P1Z2), for which the log2 fold change was inactive: 0.056. Next, C7orf50 (UniProt Q9BRJ6): inactive: -0.031; C1QBP (UniProt Q07021): inactive: -0.002.

As to C4orf33 (UniProt Q8N1A6), the log2 fold change was inactive: -0.048. For C16orf70 (UniProt Q9BSU1), the log2 fold change is inactive: 0.019. Take C19orf25 (UniProt Q9UFG5): the log2 fold change is inactive: -0.059. Next, BZW2 (UniProt Q9Y6E2): inactive: 0.031; C5orf30 (UniProt Q96GV9): inactive: 0.045. On to C16orf58 (UniProt Q96GQ5), for which the log2 fold change is inactive: 0.075. In the case of C17orf80 (UniProt Q9BSJ5), the log2 fold change was inactive: -0.043. For C8orf33 isoform 2 (UniProt Q9H7E9) the value was inactive: -0.067; for C1orf167 isoform 2 (UniProt Q5SNV9), inactive: -0.023; for CAPNS1 (UniProt K7ES78), inactive: -0.037. Next, CAPZA1 (UniProt P52907): inactive: -0.071; CA8 (UniProt P35219): inactive: 0.031. CAMSAP1 isoform 3 (UniProt Q5T5Y3): the log2 fold change is inactive: -0.01. Turning to C12orf60 (UniProt Q5U649), the log2 fold change was inactive: 0.287.

In the case of C3orf33 (UniProt Q6P1S2), the log2 fold change was inactive: -0.137. For the target C9orf16 (UniProt Q9BUW7), the log2 fold change is inactive: -0.091. Take C12orf65 (UniProt Q9H3J6): the log2 fold change is inactive: -0.056.

In the case of C1GALT1 (UniProt Q9NS00), the log2 fold change is inactive: -0.057. Next, CAMK2B (UniProt Q13554): inactive: -0.017; C4A (UniProt P0C0L4): inactive: 0.023; BTN3A3 (UniProt O00478): inactive: 0.002. On to CALB1 (UniProt P05937), for which the log2 fold change was inactive: -0.019.
